Results are given in words; binding and its absence hold for the method and conditions named. Some binding calls cover weakened binding; strength is not graded here.
Tests used:
[1] = target: Dopamine D2 receptor (mouse striatum) (mouse (endogenous in CD-1 mouse striatum)) (UniProt P61168); assay: AlphaScreen or HTRF; human caudate, mouse or rat striatal membranes (10 ug protein/well) in Alpha immunoassay buffer; 3 nM rabbit anti-D2R plus 10 nM goat anti-A2AR overnight at 4 °C, then anti-rabbit IgG donor beads and anti-goat IgG acceptor beads (20 ug/mL), 1 h at room temperature; controls: A2AR-/- mice, or no anti-A2AR antibody; samples compared: healthy control and PD caudate, 6-OHDA-lesioned and saline-treated rat striatal hemispheres
[2] = target: Dopamine D2 receptor (rat striatum) (rat (endogenous in Sprague-Dawley rat striatum)) (UniProt P61169); assay: as above

By UniProt entry, the sequences of proteins in these tests, tags left out. Where a name states a change or a piece, a line headed by the entry shows the natural chain unless it says otherwise.
UniProt P61168: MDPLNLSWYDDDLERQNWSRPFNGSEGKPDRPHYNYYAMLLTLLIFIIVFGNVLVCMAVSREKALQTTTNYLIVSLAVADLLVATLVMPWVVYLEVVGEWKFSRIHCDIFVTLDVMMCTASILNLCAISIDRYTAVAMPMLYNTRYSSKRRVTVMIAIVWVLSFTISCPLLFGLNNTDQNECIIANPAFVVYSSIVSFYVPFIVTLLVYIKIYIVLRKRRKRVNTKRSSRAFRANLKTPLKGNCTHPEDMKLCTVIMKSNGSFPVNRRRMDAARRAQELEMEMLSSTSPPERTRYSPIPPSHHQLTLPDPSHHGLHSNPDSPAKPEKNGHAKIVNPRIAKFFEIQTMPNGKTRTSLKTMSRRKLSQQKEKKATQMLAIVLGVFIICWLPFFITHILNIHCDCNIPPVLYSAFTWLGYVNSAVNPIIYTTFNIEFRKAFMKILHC
UniProt P61169: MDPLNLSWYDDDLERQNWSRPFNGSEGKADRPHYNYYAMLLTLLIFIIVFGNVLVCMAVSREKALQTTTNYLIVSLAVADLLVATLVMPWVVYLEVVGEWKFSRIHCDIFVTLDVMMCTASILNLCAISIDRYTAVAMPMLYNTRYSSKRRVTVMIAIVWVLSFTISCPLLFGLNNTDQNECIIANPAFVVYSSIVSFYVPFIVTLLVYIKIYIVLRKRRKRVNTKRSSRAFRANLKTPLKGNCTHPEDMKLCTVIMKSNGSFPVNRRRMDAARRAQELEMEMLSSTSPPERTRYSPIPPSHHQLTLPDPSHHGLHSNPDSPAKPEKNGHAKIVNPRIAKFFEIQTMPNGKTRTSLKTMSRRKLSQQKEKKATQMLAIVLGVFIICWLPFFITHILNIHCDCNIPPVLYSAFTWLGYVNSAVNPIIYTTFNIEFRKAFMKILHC
UniProt Q60613: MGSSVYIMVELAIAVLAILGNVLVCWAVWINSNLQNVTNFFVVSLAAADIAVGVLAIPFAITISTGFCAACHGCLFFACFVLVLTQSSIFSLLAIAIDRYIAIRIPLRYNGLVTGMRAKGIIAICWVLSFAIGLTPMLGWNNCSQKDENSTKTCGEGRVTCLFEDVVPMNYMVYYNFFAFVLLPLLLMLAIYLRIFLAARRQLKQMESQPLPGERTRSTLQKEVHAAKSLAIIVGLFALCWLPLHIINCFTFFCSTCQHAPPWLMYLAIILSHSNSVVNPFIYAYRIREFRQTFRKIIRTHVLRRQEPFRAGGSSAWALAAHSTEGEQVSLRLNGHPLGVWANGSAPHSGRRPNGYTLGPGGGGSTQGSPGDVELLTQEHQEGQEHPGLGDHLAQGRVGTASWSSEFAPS
UniProt P30543: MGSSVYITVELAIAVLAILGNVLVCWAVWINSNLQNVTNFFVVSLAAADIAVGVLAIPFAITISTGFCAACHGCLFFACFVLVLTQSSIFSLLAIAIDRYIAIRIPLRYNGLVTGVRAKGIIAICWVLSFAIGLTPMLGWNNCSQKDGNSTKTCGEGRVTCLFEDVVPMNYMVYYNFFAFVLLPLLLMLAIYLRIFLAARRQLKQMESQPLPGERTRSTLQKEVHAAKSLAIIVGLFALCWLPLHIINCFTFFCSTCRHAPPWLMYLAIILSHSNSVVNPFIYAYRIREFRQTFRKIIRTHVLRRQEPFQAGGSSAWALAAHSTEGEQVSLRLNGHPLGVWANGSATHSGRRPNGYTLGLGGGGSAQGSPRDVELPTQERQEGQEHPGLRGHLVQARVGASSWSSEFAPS

Row | Substance | binding [1] | binding [2]
1 | Adenosine A2A receptor (mouse striatum) (from UniProt Q60613 1-410) | binds | –
2 | Adenosine A2A receptor (rat striatum) (from UniProt P30543 1-410) | – | binds

Reference: article PMC6678849
